Reference: patent US12134785B2, “Differentiation of pluripotent stem cells to form renal organoids” (The University of Queensland, priority 2014, dated 2024)
At least one compound was matched to its structure with a doubt left.

Tests used:
[1] = tested on: human iPSC line CRL1502 (clone#C32); experiment: RA signaling control of A-P fate patterning of the IM (RA or AGN193109 with FGF9, monolayer differentiation, immunofluorescence); assay type: cell-based; conditions: RA (0.1 μM) or AGN193109 (5 μM) with FGF9 after CHIR99021, monolayer, day 18
Protocol: All experiments presented used the previously described wildtype human iPSC line CRL1502 (clone#C32) generated using episomal reprogramming^28. Undifferentiated human iPSCs were maintained on the mouse embryonic fibroblasts (MEFs) (Millipore) as a feeder layer with human ES cell (hES) medium as described previously^1. Cells were authenticated and tested for the mycoplasma infection^28. Human iPSCs were plated on a Matrigel-coated (Millipore) culture dish and cultured in MEF-conditioned hES medium (MEF-CM) until reaching to 60-100% confluent. Then, cells were again plated on a Matrigel-coated at 5,000 cells/cm^2 in MEF-CM. Next day, cells reached to 40-50% of confluent, cells were treated with 8 μM of CHIR99021 in APEL basal medium ([…] Technologies) supplemented with Antibiotic-Antimycotic (Life Technologies) for 2-5 days, followed by FGF9 (200 ng mL^−1) and Heparin (1 μg mL^−1) for another […], with changing medium every second day. At day 7, cells were collected and dissociated into single cells using Trypsin or TrypLE select (Life Technologies). Cells (0.5×10^6) were spun down at ×400 g for 2 min to form a pellet and then transferred onto a Transwell 0.4 μm pore polyester membrane (#CLS3450 Corning). […]

IM cells = experiment: Preliminary data on differentiation of IM cells at different RA / AGN193109 concentrations; assay type: cell-based

CC1=C(/C=C/C(C)=C/C=C/C(C)=C/C(=O)O)C(C)(C)CCC1 [RA, retinoic acid]
UE induction (GATA3+PAX2+ECAD+) [1]: promoted | proportion of ureteric epithelial progenitor cells (IM cells; higher concentrations of RA): relative increase | proportion of ureteric epithelial progenitor cells (IM cells; lower concentrations of RA): relative decrease
